For 24 compounds, survivor count and T/C results are on record in PubChem BioAssay AID256 (DTP/NCI, 2004).

The list does not hold the whole screen: it gathers tests that were run many times, whatever their T/C, doses with no T/C, and many T/C values between a quarter and a half above the control. Other doses and runs of a compound stand elsewhere. T/C gives the treated animals as a percentage of the vehicle group. Some entries give survivors of the animals treated and no T/C: the source files T/C as zero there, which appears to mark a toxic dose or a test without result, not a measured value. Some survivor counts are full or nearly so, which does not show that the dose was tolerated: the source hardly ever lists a survival T/C far under the control, and the zero likely stands for such cases as well. Survivors were counted at the toxicity check, usually on the fifth day, unless a day is given; later deaths do not show. Schedules are NCI's codes, read here as Q, the interval in days (D) or hours (H), X, the number of doses. Some doses were run more than once; their values stand side by side, smallest first. Where survival is the endpoint, the PubChem record calls one and a half times the control and up active, and a quarter to a half above the control has no call in these data; cut-offs in other NCI protocols can differ. Additions like (4×) count equal records among those shown.

In the test the test system is CD2F1 mice, L1210 leukemia ip, survival T/C. The test is described as follows: NCI In Vivo Anticancer Drug Screen. Data for tumor model L1210 Leukemia (intraperitoneal) in CD2F1 (CDF1) mice. As to conditions: higher T/C = longer survival. The procedure, abridged: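 Vehicle-treated tumor-bearing mice served as controls (C) for compound-treated mice (T). Reported figure is T divided by C.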

[1] abbreviates: T/C endpoint: mean survival time, dose: 50.0 mg/kg/injection, schedule: Q01DX009 (ip), vehicle: saline with Tween-80.
[2] abbreviates: T/C endpoint: mean survival time, dose: 100.0 mg/kg/injection, schedule: Q01DX009 (ip), vehicle: saline with Tween-80.
Where [3] appears, read: T/C endpoint: mean survival time, dose: 400.0 mg/kg/injection, schedule: Q01DX009 (ip), vehicle: other.
The mark [4] stands for this setting: T/C endpoint: mean survival time, dose: 400.0 mg/kg/injection, schedule: Q04DX003 (ip), vehicle: saline with Tween-80.

On to `CNNC(=O)OC`, for which the survivor count (T/C endpoint: mean survival time, dose: 200.0 mg/kg/injection, schedule: Q04DX002 (ip), vehicle: saline) was 5 of 6 and 3 of 3; the survivor count (T/C endpoint: mean survival time, dose: 400.0 mg/kg/injection, schedule: Q04DX002 (ip), vehicle: saline) is 0 of 3.

With `NC(=O)c1cn(C2OC(CO)CC2O)c2ncnc(N)c12` (configuration not stated), the T/C by setting is: (T/C endpoint: mean survival time, dose: 4.0 mg/kg/injection, schedule: Q01DX009 (ip), vehicle: water) 128 % of control; (T/C endpoint: mean survival time, dose: 16.0 mg/kg/injection, schedule: Q01DX009 (ip), vehicle: water) 127 % of control; (T/C endpoint: mean survival time, dose: 64.0 mg/kg/injection, schedule: Q01DX009 (ip), vehicle: water) 144 % of control.

For `CC(C)(C)C1=CC(=O)C(C#N)=C(C#N)C1=O`, the survivor count was 3 of 6 under setting [1] and 0 of 6 under setting [2].

Consider `CC1(c2ccccc2)NC(=O)NC1=O` (configuration not stated), for which the survivor count under setting [3] was 6 of 6.

Turning to `COc1cc([NH-])c([NH-])cc1OC.[Cl][Pt+2][Cl]`, the survivor count (T/C endpoint: mean survival time, dose: 320.0 mg/kg/injection, schedule: Q01DX009 (ip), vehicle: saline with Tween-80) is on record as 2 of 8.

On to `O=C(CCl)OCc1ccc([N+](=O)[O-])o1`, for which, under setting [4], the survivor count was 3 of 6.

`Cc1c2oc3c(C)ccc(C(=O)NC4C(=O)NC(C(C)C)C(=O)N5CCCC5C(=O)N(C)CC(=O)N(C)C(C(C)C)C(=O)OC4C)c3nc-2c(C(=O)NC2C(=O)NC(C(C)C)C(=O)N3CCCC3C(=O)N(C)CC(=O)N(C)C(C(C)C)C(=O)OC2C)c(N)c1=O` (configuration not stated): the T/C (T/C endpoint: median survival time, dose: 0.44 mg/kg/injection, schedule: Q01DX009 (ip), vehicle: water, evaluated on day 5) was 139 and 147 % of control; the T/C (T/C endpoint: median survival time, dose: 0.44 mg/kg/injection, schedule: Q01DX009 (ip), vehicle: water, evaluated on day 31) is 139 and 147 % of control; the T/C (T/C endpoint: median survival time, dose: 0.64 mg/kg/injection, schedule: Q01DX009 (ip), vehicle: water, evaluated on day 5) was 142 and 146 % of control; the T/C (T/C endpoint: median survival time, dose: 0.64 mg/kg/injection, schedule: Q01DX009 (ip), vehicle: water, evaluated on day 31) was 142 and 146 % of control; the T/C (T/C endpoint: median survival time, dose: 0.66 mg/kg/injection, schedule: Q01DX009 (ip), vehicle: water, evaluated on day 5) is 146 and 153 % of control; the T/C (T/C endpoint: median survival time, dose: 0.66 mg/kg/injection, schedule: Q01DX009 (ip), vehicle: water, evaluated on day 31) was 146 and 153 % of control. The T/C by setting is: (T/C endpoint: median survival time, dose: 0.84 mg/kg/injection, schedule: Q01DX009 (ip), vehicle: water, evaluated on day 5) 142 and 162 % of control; (T/C endpoint: median survival time, dose: 0.84 mg/kg/injection, schedule: Q01DX009 (ip), vehicle: water, evaluated on day 31) 142 and 162 % of control; (T/C endpoint: median survival time, dose: 0.96 mg/kg/injection, schedule: Q01DX009 (ip), vehicle: water, evaluated on day 5) 162 and 168 % of control; (T/C endpoint: median survival time, dose: 0.96 mg/kg/injection, schedule: Q01DX009 (ip), vehicle: water, evaluated on day 31) 162 and 168 % of control; (T/C endpoint: median survival time, dose: 1.26 mg/kg/injection, schedule: Q01DX009 (ip), vehicle: water, evaluated on day 5) 153 % of control (2×); (T/C endpoint: median survival time, dose: 1.26 mg/kg/injection, schedule: Q01DX009 (ip), vehicle: water, evaluated on day 31) 153 % of control (2×).

Consider `CCCCCCCCCCCCCCCc1cc(=O)n(-c2ccc(C(=O)OCC)cc2)n1C`, for which the survivor count (T/C endpoint: mean survival time, dose: 400.0 mg/kg/injection, schedule: Q01DX009 (ip), vehicle: saline with Tween-80) is reported as 5 of 6.

For the compound `C=CC(N)=O`, the survivor count (T/C endpoint: mean survival time, dose: 100.0 mg/kg/injection, schedule: Q01DX009 (ip), vehicle: saline) is 0 of 6.

For `Cn1/c2cc/c1=C(\c1ccc(S(=O)(=O)O)cc1)c1ccc([n-]1)/C(c1ccc(S(=O)(=O)O)cc1)=c1/cc/c([nH]1)=C(\c1ccc(S(=O)(=O)O)cc1)c1ccc([n-]1)/C=2c1ccc(S(=O)(=O)O)cc1.O.O=S(=O)(O)C(F)(F)F.[Cu+2]`, for the setting “T/C endpoint: median survival time, dose: 200.0 mg/kg/injection, schedule: Q01DX009 (ip), vehicle: saline”, the survivor count is 0 of 5.

With `O=C1C=CC(=O)N1c1cc(Cl)ccc1Cl`, under setting [4], the survivor count is 0 of 3.

For the compound `O=C(CNC(=O)Nc1ccc(F)cc1)NNC(=O)Nc1ccc(Cl)c([N+](=O)[O-])c1`, under setting [2], the survivor count is 5 of 6.

For the compound `CC(C)(C)OC(=O)NC(Cc1c[nH]c2ccccc12)C(=O)ON1C(=O)CCC1=O` (configuration not stated), the survivor count under setting [4] is recorded as 2 of 6.

With `O=C(CC([Se]c1ccccc1)c1ccccc1)c1ccccc1` (configuration not stated), the survivor count under setting [4] is listed as 3 of 6.

As for `CN(C)C(c1ccccc1)C(O)c1ccccc1` (configuration not stated), where the note is “T/C endpoint: mean survival time, dose: 300.0 mg/kg/injection, schedule: Q01DX001 (ip), vehicle: saline”, the survivor count is listed as 0 of 6.

As for `NC(CSS(=O)(=O)O)=NCc1cccs1`, the survivor count was 0 of 3 (T/C endpoint: mean survival time, dose: 100.0 mg/kg/injection, schedule: Q04DX002 (ip), vehicle: saline with Tween-80); 0 of 3 (T/C endpoint: mean survival time, dose: 200.0 mg/kg/injection, schedule: Q04DX002 (ip), vehicle: saline with Tween-80); 0 of 3 (T/C endpoint: mean survival time, dose: 400.0 mg/kg/injection, schedule: Q04DX002 (ip), vehicle: saline with Tween-80).

`N#CC(C#N)CN(C1=NCCO1)c1cccc2c1CCCC2`: the survivor count (T/C endpoint: mean survival time, dose: 200.0 mg/kg/injection, schedule: Q04DX003 (ip), vehicle: saline with Tween-80) is on record as 6 of 6.

For `CN1CCN(c2ccc([N+](=O)[O-])c3no[n+]([O-])c23)CC1`, the T/C (T/C endpoint: mean survival time, dose: 10.0 mg/kg/injection, schedule: Q01DX009 (ip), vehicle: saline) was 125 % of control; the T/C (T/C endpoint: mean survival time, dose: 15.0 mg/kg/injection, schedule: Q01DX009 (ip), vehicle: saline) is 125 % of control; the T/C (T/C endpoint: mean survival time, dose: 20.0 mg/kg/injection, schedule: Q01DX009 (ip), vehicle: saline) was 132 % of control. For the same compound, the survivor count (T/C endpoint: mean survival time, dose: 80.0 mg/kg/injection, schedule: Q01DX009 (ip), vehicle: saline with Tween-80) is 4 of 6.

Take `O=C(CCCl)c1ccccc1`: the survivor count is, setting by setting: (T/C endpoint: mean survival time, dose: 200.0 mg/kg/injection, schedule: Q01DX009 (ip), vehicle: other) 1 of 6; under setting [3], 4 of 6.

As to `CO[C@]12[C@@H](COC(N)=O)C3=C(C(=O)C(C)=C(NCCCO)C3=O)N1C[C@@H]1[C@H]2N1C` (some centres not stated), under “T/C endpoint: mean survival time, dose: 300.0 mg/kg/injection, schedule: Q01DX001 (ip), vehicle: distilled water + Tween-80”, the T/C is 133 % of control.

For the compound `CC1(C)C2(C)CC12C` (configuration not stated), the survivor count was 0 of 3 (T/C endpoint: median survival time, dose: 50.0 mg/kg/injection, schedule: Q04DX002 (ip), vehicle: saline with Tween-80); 0 of 3 (T/C endpoint: median survival time, dose: 100.0 mg/kg/injection, schedule: Q04DX002 (ip), vehicle: saline with Tween-80); 0 of 3 (T/C endpoint: median survival time, dose: 200.0 mg/kg/injection, schedule: Q04DX002 (ip), vehicle: saline with Tween-80); 0 of 3 (T/C endpoint: median survival time, dose: 400.0 mg/kg/injection, schedule: Q04DX002 (ip), vehicle: saline with Tween-80).

With `NS(=O)(=O)OCCCCCCCOS(N)(=O)=O`, the T/C is given as 125, 128, 129, 145 % of control (T/C endpoint: median survival time, dose: 25.0 mg/kg/injection, schedule: Q01DX009 (ip), vehicle: saline with Tween-80); 141, 153, 171, 191 % of control (T/C endpoint: median survival time, dose: 50.0 mg/kg/injection, schedule: Q01DX009 (ip), vehicle: saline with Tween-80); 107, 113, 141, 153 % of control (T/C endpoint: median survival time, dose: 100.0 mg/kg/injection, schedule: Q01DX009 (ip), vehicle: saline with Tween-80). Further, the survivor count by setting is: (T/C endpoint: median survival time, dose: 200.0 mg/kg/injection, schedule: Q01DX009 (ip), vehicle: saline with Tween-80) 10 of 10 and 6 of 6; (T/C endpoint: median survival time, dose: 400.0 mg/kg/injection, schedule: Q01DX009 (ip), vehicle: saline with Tween-80) 6 of 6.

Take `CCOC(=O)C(Br)(Br)C(=O)OCC`: the survivor count is 2 of 3 under setting [1]; 1 of 3 under setting [2]; 0 of 3 (T/C endpoint: mean survival time, dose: 200.0 mg/kg/injection, schedule: Q01DX009 (ip), vehicle: saline with Tween-80).

As to `COc1cc(C=Nc2cccc(F)c2)ccc1N(CCCl)CCCl`, the survivor count (T/C endpoint: mean survival time, dose: 27.0 mg/kg/injection, schedule: Q01DX015 (ip), vehicle: saline) is recorded as 5 of 6; the survivor count (T/C endpoint: mean survival time, dose: 45.0 mg/kg/injection, schedule: Q01DX015 (ip), vehicle: saline) is recorded as 1 of 6; the survivor count (T/C endpoint: mean survival time, dose: 75.0 mg/kg/injection, schedule: Q01DX015 (ip), vehicle: saline) is on record as 0 of 6; the survivor count (T/C endpoint: mean survival time, dose: 100.0 mg/kg/injection, schedule: Q01DX001 (ip), vehicle: other) was 3 of 6.
